Measurements from “University of Dundee, Small-Polar-MMV Screening Library” (2021), ChEMBL document CHEMBL3988442.

Amino acid sequences for entries named in this document (tags omitted). Residues count along the entry.
UniProt Q8IDJ8, 1-583: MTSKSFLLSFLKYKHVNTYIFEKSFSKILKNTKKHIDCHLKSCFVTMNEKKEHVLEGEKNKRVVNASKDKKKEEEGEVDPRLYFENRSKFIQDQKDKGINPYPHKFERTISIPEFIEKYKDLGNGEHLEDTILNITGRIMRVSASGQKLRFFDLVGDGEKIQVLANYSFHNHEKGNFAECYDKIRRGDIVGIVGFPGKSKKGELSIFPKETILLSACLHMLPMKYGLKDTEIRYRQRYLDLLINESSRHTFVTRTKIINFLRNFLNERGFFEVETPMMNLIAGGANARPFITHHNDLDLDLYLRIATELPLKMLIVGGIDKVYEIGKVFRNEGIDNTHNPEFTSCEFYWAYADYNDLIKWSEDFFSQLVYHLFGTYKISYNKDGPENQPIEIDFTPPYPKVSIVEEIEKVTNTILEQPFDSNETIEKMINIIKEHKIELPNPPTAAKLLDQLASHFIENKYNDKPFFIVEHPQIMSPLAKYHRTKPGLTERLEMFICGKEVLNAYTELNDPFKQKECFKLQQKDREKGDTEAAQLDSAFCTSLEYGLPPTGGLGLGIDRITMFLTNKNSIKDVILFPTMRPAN
UniProt P9WFT3, whole entry: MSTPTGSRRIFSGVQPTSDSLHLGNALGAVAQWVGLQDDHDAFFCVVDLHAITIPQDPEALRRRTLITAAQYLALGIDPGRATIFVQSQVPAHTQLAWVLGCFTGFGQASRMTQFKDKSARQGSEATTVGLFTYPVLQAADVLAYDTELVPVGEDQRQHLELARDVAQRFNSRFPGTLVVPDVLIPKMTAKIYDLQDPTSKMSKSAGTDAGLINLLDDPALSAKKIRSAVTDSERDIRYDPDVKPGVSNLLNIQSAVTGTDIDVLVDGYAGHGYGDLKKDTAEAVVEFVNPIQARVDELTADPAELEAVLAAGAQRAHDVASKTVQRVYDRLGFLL
UniProt P9WPC5, whole entry: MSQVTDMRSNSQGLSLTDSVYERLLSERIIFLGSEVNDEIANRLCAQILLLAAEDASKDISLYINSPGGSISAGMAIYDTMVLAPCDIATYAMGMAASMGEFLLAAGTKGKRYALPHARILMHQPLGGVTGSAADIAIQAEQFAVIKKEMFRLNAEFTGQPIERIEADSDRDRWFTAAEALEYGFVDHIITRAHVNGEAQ
UniProt P9WPC3, whole entry partner: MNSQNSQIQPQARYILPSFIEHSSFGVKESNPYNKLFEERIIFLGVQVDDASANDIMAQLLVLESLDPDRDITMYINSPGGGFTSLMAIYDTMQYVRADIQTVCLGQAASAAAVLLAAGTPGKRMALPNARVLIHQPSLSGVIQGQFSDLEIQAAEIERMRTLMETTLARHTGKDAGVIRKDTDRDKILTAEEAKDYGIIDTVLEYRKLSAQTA
UniProt Q4DA54, 1-478: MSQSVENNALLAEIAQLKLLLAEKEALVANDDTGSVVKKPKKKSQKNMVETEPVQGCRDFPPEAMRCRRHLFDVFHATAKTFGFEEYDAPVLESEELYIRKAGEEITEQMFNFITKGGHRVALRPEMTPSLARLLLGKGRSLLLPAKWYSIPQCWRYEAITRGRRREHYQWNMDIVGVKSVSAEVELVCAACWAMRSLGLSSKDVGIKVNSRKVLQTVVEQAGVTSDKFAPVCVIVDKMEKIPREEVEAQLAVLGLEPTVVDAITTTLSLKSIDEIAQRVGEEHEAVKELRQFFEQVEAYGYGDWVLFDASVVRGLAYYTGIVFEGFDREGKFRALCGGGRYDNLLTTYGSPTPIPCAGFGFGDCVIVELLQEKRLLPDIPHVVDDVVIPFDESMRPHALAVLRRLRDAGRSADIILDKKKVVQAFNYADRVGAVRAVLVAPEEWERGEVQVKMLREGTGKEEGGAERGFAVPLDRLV

PfKRS1: 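Lysine-tRNA ligase, Plasmodium falciparum 3D7 (UniProt Q8IDJ8). Enzyme assay of the cytosolic lysyl-tRNA synthetase in 384-well plates, read by luminescence. Compounds at 30 µM. Direction is inferred from only a few compounds that gave an IC50; most scored high, so higher reads as stronger inhibition. About 69,000 compounds were tested under these conditions; 0.071% (about 49) showed 50% or more at least once.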
MtTrpRS: 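Tryptophan-tRNA ligase, Mycobacterium tuberculosis (UniProt P9WFT3). Enzyme assay of tryptophanyl-tRNA synthetase; the read-out is not stated. Tested at 10 µM. Direction is not recorded; retested compounds ran higher, which suggests that high means inhibition. About 65,000 compounds were tested under these conditions; 0.098% (about 64) showed 50% or more at least once.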
ClpP1P2: 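Protease assay of ClpP1P2, read by the AMC dye that it sets free. Target: ClpP1P2, Mycobacterium tuberculosis (UniProt P9WPC5 and UniProt P9WPC3). Tested at 50 µM. Higher reads as stronger inhibition, judged from the few compounds that gave an IC50. Most other retested compounds had strongly negative values. Of about 69,000 compounds tested this way, about 10 (0.015%) reached 50% or more in at least one test.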
TcHisRS: 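Histidine-tRNA ligase, Trypanosoma cruzi CL Brener (UniProt Q4DA54). Enzyme assay of histidyl-tRNA synthetase; the read-out is not stated. Tested at 30 µM. Direction is inferred from retests: higher values go with stronger inhibition. Size under these conditions: about 69,000 compounds, about 31 of them at 50% or above in at least one test.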

Each number is a percent effect as filed. The record does not define 0% and 100%; most values in the screen are far below 50% and negative numbers occur (in some assays of this library far below -100). Compounds were drawn at random from those tested, without regard to their results. A dash means the value is not listed here; it may have been measured.

Compound,PfKRS1,MtTrpRS,ClpP1P2,TcHisRS
O=C(CNC(=O)N1CCc2c([nH]c3ccc(Cl)cc23)C1)NCCCO,0.6304%,-1.751%,-8.653%,5.263%
CCS(=O)(=O)NC(CCSC)C(=O)Nc1cc(F)ccc1C (centres unmarked),1.568%,1.671%,2.321%,-4.294%
Cc1cc(N2CCN(C(=O)c3cc(Cl)c[nH]3)CC2)nc(N)n1,0.9033%,1.727%,-4.611%,-0.8264%
Cn1cccc1C(=O)NC[C@H]1C[C@@H]2CN(C(=O)c3ccco3)C[C@@H]2O1,4.728%,-,5.865%,8.84%
Cc1ccc(NC2CCN(C(=O)CCC3CCCO3)CC2)nn1 (centres unmarked),3.268%,1.56%,-6.126%,11.11%
CCOc1ccc(C(=O)N2CCCC2c2c(C)nn(C)c2OC)cn1 (centres unmarked),1.085%,10.05%,-27.33%,5.413%
CC(c1nc(C2CC2)no1)N1CCN(Cc2ccsc2)CC1 (centres unmarked),0.4689%,3.786%,1.337%,-2.29%
O=C(NCCNc1cnccn1)N1CC=C(c2ccccc2)CC1,5.609%,-5.589%,-3.836%,3.061%
Cc1cc2c(cc1Cl)C=CC1(CCN(CC(=O)N3CCOCC3)CC1)O2,-0.6687%,7.668%,-13.93%,6%
c1ccc2oc(NC3CCCN(Cc4noc(C5CC5)n4)C3)nc2c1 (centres unmarked),-1.943%,-16.02%,-9.748%,2.5%
CN1CCC(N(C)C(=O)CSc2ccc(F)c(F)c2)C1=O (centres unmarked),3.187%,-2.534%,1.735%,4.372%
CCn1cc(CN(C)Cc2cnn(-c3ccc(F)cc3)c2)cn1,3.793%,5.346%,13.42%,0.8696%
Cc1cc(S(=O)(=O)N2CCCc3ccc(F)cc32)sc1C(=O)O,8.053%,-0.7105%,-27.62%,-2.075%
CCN1CC[C@@]2(C(=O)N(C)C)CCN(S(=O)(=O)c3ccccc3)CC[C@@H]12,1.423%,-3.153%,-6.346%,2.913%
Cc1nnc(C(C)N2CCCN(Cc3noc(C4CC4)n3)CC2)o1 (centres unmarked),1.051%,-2.977%,5.844%,9.091%
CSCCc1c(-c2ccccc2)ncn1CC(C)(C)N1CCOCC1,-3.183%,0.1904%,-6.341%,5.202%
CC(C)CN1CCc2[nH]cnc2C12CCN(C(=O)c1cccnc1)CC2,-4.36%,-2.664%,-16.62%,5.394%
Cc1cc(C)n(Cc2cccc(C(=O)NCCSCC(C)(C)O)c2)n1,3.106%,0.6365%,-28.69%,-2.232%
Cc1noc(C(C)C)c1C(=O)NCc1ccc(N(C)C)c(F)c1,-0.3705%,2.045%,-2.429%,4.023%
CCc1nc(NC(=O)Cc2csc(-c3nnc[nH]3)n2)sc1C,1.777%,-1.525%,-2.753%,9.091%
Cc1cc(C)c(CNC(=O)N(C)Cc2cccc(C#N)c2)c(=O)[nH]1,-0.9525%,6.305%,-23.43%,-10.4%
O=C(Cc1ccsc1)N1CCN(CCOc2ccccc2)CC1,10.17%,-4.46%,-2.175%,-0.5291%
Cc1cnn(CC2CCCN2C(=O)CCc2nc3ccccc3[nH]2)c1 (centres unmarked),4.918%,-0.8655%,9.757%,-0.7519%
NC(=O)c1ccc(CN2CCC(N3CCCC3)CC2)cc1,8.377%,4.196%,-10.77%,3.139%
CCC1CN(CC(=O)N2CCCC2)CCN1CCOC (centres unmarked),0.5372%,-1.372%,-8.974%,4.871%
NC(=O)CN1CC[C@@]2(O)CCCC[C@H]2[C@@H]1c1ccc2c(c1)OCO2,-3.226%,-2.006%,-12.36%,3.96%
Cn1cccc1C(=O)N1CCC2(CCCN2S(C)(=O)=O)CC1,7.232%,-8.115%,4.195%,-72.41%
CC(C)NC(=O)C1(Cc2ccccc2-c2ccccc2)CCCNC1 (centres unmarked),2.367%,-2.676%,-18.12%,5.085%
CCC1(c2ccc(NS(=O)(=O)c3cccs3)cc2)CCC(=O)NC1=O (centres unmarked),3.447%,-4.956%,-0.003815%,6.897%
CC(C)c1cc(N2CCC(C(C)N3CCCC3)CC2)n2nccc2n1 (centres unmarked),6.588%,1.944%,-8.582%,45.92%
Cc1nn(C)c(C)c1C1SCC(=O)Nc2c1c(O)nn2C(C)C (centres unmarked),4.538%,-2.658%,7.427%,-2.439%
Cc1cc(CN2CCN(S(=O)(=O)c3c(C)c(Cl)cc(C)c3Cl)CC2)on1,1.453%,-1.377%,-18.56%,9.453%
Cn1ccnc1C(=O)NC[C@H]1OC[C@@H]2CCN(S(C)(=O)=O)C[C@@H]21,6.416%,0.5724%,12.66%,2.062%
Cn1cc(C2CC(=O)NC23CCN(Cc2ccncc2)CC3)cn1 (centres unmarked),-1.085%,10.73%,-6.338%,0.9524%
Cc1nc(N2CCCC2)nc2c1CCN(C(=O)C1CCCCC1)CC2,-0.5691%,0.8299%,-10.9%,14.63%
COc1ccc(CCNC(=O)N2CCCC(c3nncn3C)C2)cc1 (centres unmarked),-1.037%,31.47%,-2.163%,4%
CCS(=O)(=O)N1CCC2(CC(=O)N(c3ccc4c(c3)OCO4)C2)C1 (centres unmarked),-2.362%,1.953%,-2.653%,3.922%
Cc1cnn(CC2CCCN2CC(=O)Nc2cc(C)on2)c1 (centres unmarked),1.219%,0.5111%,-17.73%,1.425%
COc1ccc(C(O)CNc2c(C#N)c(=O)n(C)c(=O)n2C)cc1 (centres unmarked),13.43%,1.81%,-8.414%,5.263%
CN(C)c1ncc(CNC2CC(=O)N(CCc3cccc(Cl)c3)C2)s1 (centres unmarked),-17.79%,-5.124%,-12.65%,4.02%
Cc1cccc(C(=O)N2C[C@@H]3CCN(c4cccnc4)C[C@@H]3C2)c1,-11.4%,2.996%,2.806%,4.918%
CCS(=O)(=O)NCCCn1ncc2c(C)cccc21,6.321%,-3.497%,2.602%,4.348%
CCS(=O)(=O)N1CCc2ccc(NC(=O)NCCc3ccccc3)cc21,-6.036%,0.8804%,28.03%,2.513%
CC(NC(=O)NC1CCN(Cc2ccccn2)CC1)c1ccco1 (centres unmarked),6.649%,-1.188%,8.587%,0.4926%
COc1ccc(CNC(=O)Nc2cccnc2N2CCCC2)cc1OC,-0.6281%,21.47%,-89.76%,6.105%
CCc1ncc2c(n1)CN(C(C)C(=O)Nc1ccc(Cl)cn1)CC2 (centres unmarked),-2.636%,20.2%,-59.27%,7.345%
COCCn1cc2c(n1)C(CNCc1cccc(OC)c1)OCC2 (centres unmarked),1.273%,28.58%,-8.273%,6.542%
CCN1CCN(CC(O)c2ccc(OC(F)(F)F)cc2)CC1 (centres unmarked),-7.489%,4.304%,0.1225%,-0.7519%
O=C(Cc1ccc(F)cc1Cl)N1C[C@@H](CN2CCC(O)CC2)[C@@H](CO)C1,4.921%,-4.352%,-4.37%,3.804%
CCc1nc(C)c([C@H]2CN(C)C[C@@H]2C(=O)Nc2ccc(OC)nc2)[nH]1,-0.8339%,-2.678%,-3.489%,-1.058%
COCC1CN(S(=O)(=O)Cc2ccc(C)cc2)Cc2c1cnn2C (centres unmarked),7.839%,-0.5394%,0.03636%,3.797%
CC1(C)CN(C(=O)NCCc2ccn(-c3ccccc3)n2)CCO1,0.26%,3.049%,1.269%,-1.887%
Cc1oc(C(=O)O)cc1S(=O)(=O)Nc1cccc(-n2nccc2C)c1,3.359%,2.388%,-6.576%,4.211%

Some entries from above, unchanged:

| Compound | PfKRS1 | MtTrpRS | ClpP1P2 | TcHisRS |
|---|---|---|---|---|
| `Cc1cc(N2CCN(C(=O)c3cc(Cl)c[nH]3)CC2)nc(N)n1` | 0.9033% | 1.727% | -4.611% | -0.8264% |
| `COc1ccc(C(O)CNc2c(C#N)c(=O)n(C)c(=O)n2C)cc1` (centres unmarked) | 13.43% | 1.81% | -8.414% | 5.263% |
| `Cc1cccc(C(=O)N2C[C@@H]3CCN(c4cccnc4)C[C@@H]3C2)c1` | -11.4% | 2.996% | 2.806% | 4.918% |
| `COCC1CN(S(=O)(=O)Cc2ccc(C)cc2)Cc2c1cnn2C` (centres unmarked) | 7.839% | -0.5394% | 0.03636% | 3.797% |